Not every detail of the peptide structures is certain; ends, links or a residue may be inferred. Where a SMILES comes first, the peptide text is derived from it. [ ]: non-standard residue; d: D form. pGlu = O=C1CC[C@@H](C(=O)O)N1
Assays:
HIV-1IIIB = test: HIV-1 antiviral assay (CPE reduction, MTS) in CEM-SS cells; format: cell-based; settings: peptide 10 micrograms per ml; 6 days post-infection
A549 cells [1] = test: Propidium iodide cell cycle assay; format: cell-based, human; settings: 10 micrograms per ml, 24 hours
[2] = test system: Human Peripheral Blood Mononuclear Cells (PBMC); test: T cell proliferation assay (PHA, 3H-thymidine); format: cell-based; settings: 10 micrograms per ml
[3] = test system: Human Peripheral Blood Mononuclear Cells (PBMC); test: B cell proliferation assay (SAC plus Interleukin-2, 3H-thymidine); format: cell-based; settings: 10 micrograms per ml
RAW 264.7 cells = test: Phagocytosis assay (Fluorescein-labeled Escherichia coli, flow cytometry); format: cell-based, mouse; settings: 10 micrograms per ml
A549 cells [4] = test: Apoptosis induction assay (Annexin-5); format: cell-based, human; settings: apoptosis induction in A549 cells; 10 micrograms per ml; 24 hours
A549 cells [5] = test: Apoptosis prevention assay (C2 ceramide, Annexin-5); format: cell-based, human; settings: A549 cells pretreated 30 min; 10 micrograms per ml
spleen cells = test: Th1/Th2 cytokine profiling assay (Ovalbumin restimulation, CBA kit); format: cell-based, Balb/c mice; settings: 10 micrograms per ml; 72 hours after Ovalbumin restimulation
[6] = test system: macrophages prepared from human PBMC; test: TNF alpha production assay (LPS-stimulated macrophages, ELISA); format: cell-based; settings: 10 micrograms per ml, lipopolysaccharide 200 ng/ml
[7] = test system: Primary Human endothelial cells (HUVEC); test: Endothelial cell migration assay; format: cell-based; settings: 10 micrograms per ml, 22 hours
HUVEC = test: Endothelial tube formation assay; format: cell-based, human; settings: 10 micrograms per ml, 20 hours

CSCC[C@H](NC(=O)[C@H](Cc1c[nH]c2ccccc12)NC(=O)CNC(=O)[C@H](Cc1ccc(O)cc1)NC(=O)[C@H](C)NC(=O)[C@H](CCC(=O)O)NC(=O)[C@H](CCC(=O)O)NC(=O)[C@H](CCC(=O)O)NC(=O)[C@H](CCC(=O)O)NC(=O)[C@H](CCC(=O)O)NC(=O)[C@H](CC(C)C)NC(=O)[C@H](Cc1c[nH]c2ccccc12)NC(=O)[C@@H]1CCCN1C(=O)CNC(=O)[C@H](CCC(N)=O)NC(=O)[C@H](CCCCN)NC(=O)[C@H](CCCCN)NC(=O)[C@H](CO)NC(=O)[C@@H]1CCCN1C(=O)[C@H](CC(=O)O)NC(=O)[C@H](C)NC(=O)[C@@H](NC(=O)[C@H](CC(C)C)NC(=O)[C@H](Cc1c[nH]cn1)NC(=O)[C@@H]1CCCN1C(=O)[C@@H]1CCCN1C(=O)CNC(=O)[C@H](CCC(N)=O)NC(=O)[C@@H]1CCCN1C(=O)CNC(=O)[C@H](CC(C)C)NC(=O)[C@@H]1CCC(=O)N1)C(C)C)C(=O)N[C@@H](CC(=O)O)C(=O)N[C@@H](Cc1ccccc1)C(N)=O [Big Gastrin I] ([pGlu]LGPQGPPHLVADPSKKQGPWLEEEEEAYGWMDF-NH2)
% CPE reduction in HIV-1 infected CEM-SS cells (HIV-1IIIB): 0.0%
Cell cycle analysis G0/G1 (A549 cells [1]): 55.9
Cell cycle analysis G2/M (A549 cells [1]): 10.0
Cell cycle analysis S (A549 cells [1]): 34.1
% of PHA induced control [2]: 104.0%
% of SAC/IL2 induced control [3]: 91.9%
% of control phagocytosis (RAW 264.7 cells): 111.4%
% of induction (A549 cells [4]): 1.1%
% prevention of ceramide induced apoptosis (A549 cells [5]): 0.0%
IFNγ spleen cells; TH1 response (% of control) (spleen cells): 73.9 % of control
IL-2 spleen cells (% of control) (spleen cells): 0.0 % of control
IL-4 spleen cells; TH2 response (% of control) (spleen cells): 0.0 % of control
IL-5 spleen cells; TH2 response (% of control) (spleen cells): 55.5 % of control
TNF-a spleen cells; TH1 response (% of control) (spleen cells): 107.4 % of control
% of LPS induction [6]: 96.7%
% inhibition of migration [7]: 35%
% inhibition of tube formation (HUVEC): 9.0%
